Experimental data: PubChem BioAssay AID652259 (Drosophila RNAi Screening Center, 2013)
In all, the deposit lists about 22,000 reagents; shown is a random part of those with a known target gene and a result. In the full data, 233 (1.1%) are marked active. 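Light values are raw, unnormalised plate reads; the ratio scores behind the reporter calls were not deposited.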 The numbers tell different reagents against one gene apart. No sequences are given here. The record does not give: the amount of reagent, the time to read-out, the dose of the treatment.

- Aim: 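Knock-downs that push a Wingless-driven reporter up or down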 (primary screen)
- Cells: Drosophila clone 8 imaginal disc epithelial cells
- Knock-down reagent: long dsRNA against Drosophila genes
- Challenge: pathway stimulated by co-transfected Wingless expression plasmid
- Measured: 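Dual luciferase reads per well after Wingless plasmid stimulation: reporter firefly light and Renilla control light; activity is firefly divided by Renilla, a ratio not deposited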
- Direction: firefly reporter light: higher = more Wg reporter light, before normalisation; Renilla control light: higher = more transfected or surviving cells
- Rule for the call: 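a knock-down is a candidate when at least two out of four statistical tests show it departing from its plate mean; one test alone signals a weak candidate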
- Calls: active = candidate regulator (raises or lowers reporter); inactive = not a candidate

Silencing of Buffy came out at: firefly reporter light, replicate 1 = 7771; Renilla control light, replicate 1 = 3168; inactive.
Against CG12692 the deposit lists firefly reporter light, replicate 1 = 22820; Renilla control light, replicate 1 = 7794; inactive.
Silencing of Spf45 came out at: firefly reporter light, replicate 1 = 2293; firefly reporter light, replicate 2 = 7475; Renilla control light, replicate 1 = 833; Renilla control light, replicate 2 = 2491; inactive.
After knock-down of PheRS-m, the record shows firefly reporter light, replicate 1 = 14619; Renilla control light, replicate 1 = 4324; inactive.
CG5676 scored firefly reporter light, replicate 1 = 2192; firefly reporter light, replicate 2 = 7387; Renilla control light, replicate 1 = 965; Renilla control light, replicate 2 = 3570; inactive.
With knock-down of CG7606 #1, the screen gave firefly reporter light, replicate 1 = 4833; Renilla control light, replicate 1 = 1765; inactive.
CG7606 #2 showed firefly reporter light, replicate 1 = 15364; Renilla control light, replicate 1 = 4460; inactive.
With knock-down of CG14309, the record shows firefly reporter light, replicate 1 = 9312; Renilla control light, replicate 1 = 1906; inactive.
Silencing of CG10584 resulted in: firefly reporter light, replicate 1 = 24138; Renilla control light, replicate 1 = 7141; inactive.
After knock-down of TpnC41C the results were firefly reporter light, replicate 1 = 2531; firefly reporter light, replicate 2 = 6896; Renilla control light, replicate 1 = 441; Renilla control light, replicate 2 = 2448; inactive.
Ppm1 gave firefly reporter light, replicate 1 = 5040; Renilla control light, replicate 1 = 3592; inactive.
With knock-down of Pdp the results were firefly reporter light, replicate 1 = 3152; firefly reporter light, replicate 2 = 7655; Renilla control light, replicate 1 = 1076; Renilla control light, replicate 2 = 2114; inactive.
With knock-down of U2af38, the record shows firefly reporter light, replicate 1 = 14185; Renilla control light, replicate 1 = 2381; inactive.
COX5A scored firefly reporter light, replicate 1 = 13123; Renilla control light, replicate 1 = 2426; inactive.
Knock-down of CG31689 resulted in: firefly reporter light, replicate 1 = 3225; firefly reporter light, replicate 2 = 7440; Renilla control light, replicate 1 = 954; Renilla control light, replicate 2 = 2201; inactive.

Part of the list above in another layout:
Gene | reagent | reporter change call, replicate 1 | firefly reporter light, replicate 1 | firefly reporter light, replicate 2 | Renilla control light, replicate 1 | Renilla control light, replicate 2 | Call
CG7606 | 1 | – | 4833 | – | 1765 | – | inactive
CG7606 | 2 | – | 15364 | – | 4460 | – | inactive
CG14309 | 1 | – | 9312 | – | 1906 | – | inactive

Next results:
After knock-down of tup, the record shows firefly reporter light, replicate 1 = 10968; Renilla control light, replicate 1 = 2520; inactive.
CG8630 showed firefly reporter light, replicate 1 = 12768; Renilla control light, replicate 1 = 2152; inactive.
Silencing of beta-Man #1 resulted in: firefly reporter light, replicate 1 = 9836; Renilla control light, replicate 1 = 3031; inactive.
For beta-Man #2 the deposit lists firefly reporter light, replicate 1 = 18023; Renilla control light, replicate 1 = 5462; inactive.
After knock-down of CkIIbeta, the record shows firefly reporter light, replicate 1 = 12458; Renilla control light, replicate 1 = 8120; inactive.
Knock-down of CG8149 resulted in: firefly reporter light, replicate 1 = 10768; Renilla control light, replicate 1 = 2733; inactive.
Silencing of CG4502 gave: reporter change call, replicate 1 = Wg reporter activity lowered; firefly reporter light, replicate 1 = 4736; Renilla control light, replicate 1 = 3509; inactive.
With knock-down of Slmap the results were firefly reporter light, replicate 1 = 3316; firefly reporter light, replicate 2 = 6602; Renilla control light, replicate 1 = 613; Renilla control light, replicate 2 = 2042; inactive.
For Cyp6d4, the entry reads firefly reporter light, replicate 1 = 3147; firefly reporter light, replicate 2 = 5232; Renilla control light, replicate 1 = 1794; Renilla control light, replicate 2 = 2354; inactive.
For Sou, the values are firefly reporter light, replicate 1 = 2915; firefly reporter light, replicate 2 = 7738; Renilla control light, replicate 1 = 641; Renilla control light, replicate 2 = 2608; inactive.
